The record followed here is patent US20120308482A1.

Amino acid sequences for entries named in this document (tags omitted). A change or cut given only in a name is not applied to a line headed by its entry.
UniProt P48551: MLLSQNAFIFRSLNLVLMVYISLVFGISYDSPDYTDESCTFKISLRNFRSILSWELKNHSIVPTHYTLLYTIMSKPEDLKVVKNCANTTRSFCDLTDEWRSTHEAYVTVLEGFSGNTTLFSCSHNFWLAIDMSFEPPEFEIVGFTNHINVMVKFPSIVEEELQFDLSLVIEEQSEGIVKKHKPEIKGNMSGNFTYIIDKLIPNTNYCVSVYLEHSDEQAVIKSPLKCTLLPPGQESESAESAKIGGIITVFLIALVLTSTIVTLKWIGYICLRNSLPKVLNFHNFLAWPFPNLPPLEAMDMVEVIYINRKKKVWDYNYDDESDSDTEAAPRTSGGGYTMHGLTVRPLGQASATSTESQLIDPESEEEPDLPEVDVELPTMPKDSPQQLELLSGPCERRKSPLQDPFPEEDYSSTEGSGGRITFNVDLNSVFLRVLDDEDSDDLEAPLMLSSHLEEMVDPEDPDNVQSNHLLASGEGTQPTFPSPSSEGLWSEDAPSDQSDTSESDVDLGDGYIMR
UniProt P17181: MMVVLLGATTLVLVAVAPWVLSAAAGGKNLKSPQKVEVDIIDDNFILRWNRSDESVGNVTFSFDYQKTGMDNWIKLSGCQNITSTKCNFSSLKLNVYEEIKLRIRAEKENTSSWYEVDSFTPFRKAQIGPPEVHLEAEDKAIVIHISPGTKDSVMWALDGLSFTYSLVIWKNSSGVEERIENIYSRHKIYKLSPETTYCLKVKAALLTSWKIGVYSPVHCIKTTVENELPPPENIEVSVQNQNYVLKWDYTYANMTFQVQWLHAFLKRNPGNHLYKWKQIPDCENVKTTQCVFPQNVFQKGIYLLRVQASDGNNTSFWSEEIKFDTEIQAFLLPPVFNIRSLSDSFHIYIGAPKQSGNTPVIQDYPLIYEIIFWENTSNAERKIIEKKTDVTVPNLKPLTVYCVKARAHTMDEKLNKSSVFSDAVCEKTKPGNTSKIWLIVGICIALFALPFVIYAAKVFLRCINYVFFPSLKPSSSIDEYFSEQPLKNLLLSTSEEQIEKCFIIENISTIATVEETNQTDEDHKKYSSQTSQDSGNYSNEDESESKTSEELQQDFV

No constants are given. Whether binding was seen depends on the method and setting. Some results given as binding are weak or reduced against the parent protein; the word gives no strength. Tags and fused reporters may be left off the sequences shown.

This test concerns the target human IFN receptor complex (human) (UniProt P48551+P17181). Nature of the test: inferred by the filing from the ISRE reporter gene assay on human HEK293 cells.

B1: cyno IFNω protein (Macaca fascicularis interferon omega) with a C-terminal 6xHis tag (ligand)
chain: CDLPQNHGLLSRNTLVLLHQMRRISPFLCLKDRRDFRFPQEMVEGSQLQKAQVMSVLHEMLQQIFSLFHTEHSSAAWNTTLLDHLHTGLHRQLEHLETCLVQVMREGESAGAIRSPALTLRRYFQGIRVYLKEKKYSDCAWEVVRMEIMKSLFLSTNMQERLKSKDGDLGSSHHHHHH
As for B1, the binding entry was “binds”.
